## Percent effect of library compounds

The chains behind the UniProt entries cited, without tags or fusion partners.
UniProt I6X8D2, whole entry: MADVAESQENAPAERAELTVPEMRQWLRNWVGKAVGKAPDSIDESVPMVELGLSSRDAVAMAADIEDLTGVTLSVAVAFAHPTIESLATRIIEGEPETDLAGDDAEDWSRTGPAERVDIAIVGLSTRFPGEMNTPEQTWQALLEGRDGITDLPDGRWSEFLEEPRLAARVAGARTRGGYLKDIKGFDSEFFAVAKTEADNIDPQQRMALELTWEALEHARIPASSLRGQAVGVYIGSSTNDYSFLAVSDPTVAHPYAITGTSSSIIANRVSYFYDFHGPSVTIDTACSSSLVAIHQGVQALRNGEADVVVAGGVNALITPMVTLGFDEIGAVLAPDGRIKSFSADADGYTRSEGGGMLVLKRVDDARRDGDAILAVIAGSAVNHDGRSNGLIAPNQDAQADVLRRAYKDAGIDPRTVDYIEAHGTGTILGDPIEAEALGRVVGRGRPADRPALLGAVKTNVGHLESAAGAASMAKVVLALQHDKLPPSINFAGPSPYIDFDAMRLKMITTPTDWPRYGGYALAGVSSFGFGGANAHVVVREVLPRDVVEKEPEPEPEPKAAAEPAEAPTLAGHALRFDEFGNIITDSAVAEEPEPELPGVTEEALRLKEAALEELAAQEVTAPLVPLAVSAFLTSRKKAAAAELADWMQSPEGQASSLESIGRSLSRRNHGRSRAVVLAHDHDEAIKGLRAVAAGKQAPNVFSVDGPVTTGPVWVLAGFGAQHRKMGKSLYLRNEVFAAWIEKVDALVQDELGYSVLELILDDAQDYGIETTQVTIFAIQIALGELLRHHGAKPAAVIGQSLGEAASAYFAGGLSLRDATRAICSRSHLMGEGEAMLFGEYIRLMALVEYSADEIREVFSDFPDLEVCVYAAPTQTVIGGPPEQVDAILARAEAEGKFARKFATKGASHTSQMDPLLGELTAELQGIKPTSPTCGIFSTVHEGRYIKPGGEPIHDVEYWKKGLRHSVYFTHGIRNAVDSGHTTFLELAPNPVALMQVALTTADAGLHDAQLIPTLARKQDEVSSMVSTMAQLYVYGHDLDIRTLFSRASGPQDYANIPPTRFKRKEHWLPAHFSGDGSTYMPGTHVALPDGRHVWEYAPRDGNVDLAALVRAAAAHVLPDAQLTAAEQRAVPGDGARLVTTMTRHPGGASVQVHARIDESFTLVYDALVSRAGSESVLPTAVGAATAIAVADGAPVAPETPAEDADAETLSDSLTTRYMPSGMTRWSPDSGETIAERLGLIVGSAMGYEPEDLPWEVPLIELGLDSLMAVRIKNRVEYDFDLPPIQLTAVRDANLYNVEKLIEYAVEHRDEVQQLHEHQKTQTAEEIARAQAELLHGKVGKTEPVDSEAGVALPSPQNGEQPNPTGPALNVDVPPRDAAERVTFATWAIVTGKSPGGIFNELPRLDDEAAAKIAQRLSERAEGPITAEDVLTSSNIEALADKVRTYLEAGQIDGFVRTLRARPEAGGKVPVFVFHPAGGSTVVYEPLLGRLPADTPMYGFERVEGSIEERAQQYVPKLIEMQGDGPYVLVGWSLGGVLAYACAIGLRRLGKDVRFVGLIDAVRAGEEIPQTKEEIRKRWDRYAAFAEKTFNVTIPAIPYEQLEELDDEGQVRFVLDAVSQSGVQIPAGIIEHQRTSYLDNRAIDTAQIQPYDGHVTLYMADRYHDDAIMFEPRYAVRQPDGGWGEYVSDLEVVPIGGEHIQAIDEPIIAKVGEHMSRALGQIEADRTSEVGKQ

The filed quantity is “Percent Effect” (%). The controls that fix the scale are not given in the record; negative values are as filed. Compounds were drawn at random from those tested, without regard to their results.

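Polyketide synthase Pks13, Mycobacterium tuberculosis (UniProt I6X8D2). Enzyme assay of the thioesterase domain of polyketide synthase 13; the read-out is not stated. Compounds at 30 µM. Higher reads as stronger inhibition (inferred from which compounds were picked for retests). Size under these conditions: about 67,000 compounds, about 300 of them at 50% or above in at least one test.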

CN(C)CCO[C@H]1CN(Cc2ccc3c(c2)OCO3)[C@@H]2COC[C@H]12 read -15.4%.
CC(C)OCCC(=O)NCC(c1c(F)cccc1F)N(C)C (configuration not stated) read -28.11%.
CC(C)COCCCNC(=O)NCC(O)c1cccc(F)c1 (configuration not stated) read -10.16%.
CNC(=O)[C@@H]1C[C@@H](n2cc(-c3ccc(Cl)cc3)nn2)CN1 read -16%.
Cc1cc(-c2cncnc2)ccc1OCC(N)=O read 39.94%.
CN1CCC2(CC1)CCN(C(=O)c1onc3ccccc13)C2 read 13.3%.
CN(CCCc1n[nH]c(N)c1C#N)C(=O)NC1CC1 read -10.38%.
Cc1nc(NCc2ccc(F)cc2)cc(C2CCCN2)n1 (configuration not stated) read -7.906%.
COc1ccc(Oc2ncccc2C(N)=O)cc1CN1CCCC1 read -1.464%.
CC(C)C(NC(=O)C1CCCC1)c1cc(O)nc(-c2cccnc2)n1 (configuration not stated) read -7.929%.
COc1cc(C)nc(N2CCN(C(=O)COCC3CC3)CC2)n1 read -16.99%.
Cc1cccc(CN2CC[C@@H]3[C@@H]2CCN3C(=O)c2cc(C)oc2C)n1 read 1.94%.
Fc1cnc(N2CC3(CCN(Cc4ccsc4)C3)C2)nc1 read -10.5%.
CS(=O)(=O)NC1CCN(C(=O)COCc2ccccc2)CC1 read 18.06%.
CC(NC(=O)C(C)(C)C)c1cc(O)nc(-c2cccnc2)n1 (configuration not stated) read -3.18%.
CN1CC(=O)N(c2ccsc2)CC12CCN(S(=O)(=O)c1ccccc1)C2 (configuration not stated) read -2.89%.
O=C1CCc2cc(C(=O)NCc3ccc(Cl)s3)ccc2N1 read -8.77%.
CC(C)(C)OC(=O)NC1CCCN(Cc2cccs2)C1 (configuration not stated) read 7.328%.
CCn1c(Cn2cncn2)nnc1C1CCN(Cc2ccc(C)o2)CC1 read 4.7%.
O=C(CCN1CCCC1=O)NCc1cccnc1Oc1ccccc1 read -15.06%.
CN(Cc1ccccc1CN1CCCC1)c1ncnc2[nH]ccc12 read -21.64%.
CNC(=O)[C@@H]1C[C@@H]2CCN(Cc3ccoc3)C[C@H]2O1 read -1.877%.
CNC(=O)CN1CCC(NC(=O)Cc2ccc3c(c2)OCCO3)CC1 read -9.294%.
CCCc1ccc(OCCNCc2ccco2)c(OC)c1 read 5.724%.
CC(C)CCc1n[nH]c(C(=O)O)c1Br read -20.44%.
CCOc1cccnc1C(=O)N1CCC(c2ccccc2OC)C1 (configuration not stated) read 37.32%.
OC1(CNCc2ccc(F)c(C(F)(F)F)c2)CCSCC1 read -25.67%.
Cc1cnc2c(S(=O)(=O)NCC3CCOC3)cccc2c1 (configuration not stated) read -6.633%.
CCNC(=O)[C@@H]1C[C@H](N)CN1Cc1ccc2cccc(Cl)c2n1 read -38.97%.
Cc1ccccc1N1CCN(C(=O)c2cnc(N(C)C)nc2C)C(C)C1 (configuration not stated) read 16.49%.
O=C(c1ccccn1)N1CCC2(CNS(=O)(=O)c3cnccc3O2)C1 (configuration not stated) read -20.07%.
Cc1c(C)n2c(SCC(=O)N3CCC(C)CC3)nnc2[nH]c1=O read -36.32%.
N#Cc1cccc(C(=O)N2CCc3ncc(Cn4cccn4)n3CC2)c1 read -20.13%.
Cc1ccc(OCC(O)CN2CCc3c(ncn3C3CC3)C2)cc1 (configuration not stated) read -6.176%.
Cn1cnnc1C1CCCN(C(=O)COCc2ccccc2)C1 (configuration not stated) read -2.1%.
O=C(C1CCCN1Cc1nc(-c2ccco2)no1)N1CCSCC1 (configuration not stated) read -5.981%.
O=C(c1cncc(N2CCC3(CC2)NCCNC3=O)n1)N1CCCCC1 read -24.83%.
CCOc1ccc(Cl)c(C(=O)NC)n1 read -16.42%.
O=C1CN(c2ccc(C(=O)N3CCc4ccccc43)cn2)CCN1 read -15.31%.
CCN(CC)CCn1ccnc1-c1[nH]cnc1C read -39.22%.
O=C(NCc1ccc2c(c1)CCCO2)C1CNCCO1 (configuration not stated) read 28.31%.
COc1nn(C)c2c1CCCN(C(=O)c1c[nH]cn1)C2 read -5.823%.

From ChEMBL document CHEMBL3988442, “University of Dundee, Small-Polar-MMV Screening Library” (2021).